Data taken from US20260116971A1.
These are yes or no findings as the source states them, for the method shown. Binding can be weak; no strength is given.

Molecular target: Chlorocebus (African green monkey) Nectin-2 (Chlorocebus (African green monkey))
Assay: FACS titration (20-0.0003 nM) on Vero cells (endogenous African green monkey Nectin-2)

binding: binds
B1: anti-Nectin-2 monoclonal antibody clone 11 (antibody, V domains shown)
VH: EVQLQQSGTVLTRPGASVKMSCKASGYIFTSYWIHWVKQRPGQGLEWIGAVYPGNSDSNYNQKFKAKAKLTAVTSTSTAYMELSSLTSEDSAVYYCTKLVGTFDYWGQGTTLTVSS
VL: DIVMTQSQKFMSSSIGDRVSVTCKASQNVGINVVWYQQRAGQSPKTLIYSASYRYSGVPDRFTGSGSGTDFTLTISNVQSEDLAEYFCQQYNTNPFTFGSGTKLEIK
